# Measurements published in the supplement of paper PMC4604168 (melanoma cell lines).
# The list shows a part of the results. Many values rest on one well or one pass, so single values are uncertain.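 Cells were imaged in 1,536-well plates, and nuclei stained with an antibody against cleaved PARP were counted against all DNA-stained nuclei to give the apoptosis fraction. Screening doses were chosen to leave most cells alive, and resting and induced cleaved-PARP levels differ strongly between cell lines.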
# Tested on: WM1716
# Assay: cleaved PARP positive nuclei fraction relative to DMSO control; melanoma cells; higher = more apoptosis
# Settings: library dose: low library concentration; 72 h
row,SMILES,cleaved PARP positive nuclei fraction
1,"CCCCCCCCCCCCCCCCCCOP(=O)([O-])OC1CC[N+](C)(C)CC1 [Perifosine] + C#Cc1cccc(Nc2ncnc3cc(OCCOC)c(OCCOC)cc23)c1 [erlotinib] (first compound 0.4 µM, partner dose 0.8 µM)",39.1%
2,"COc1cc([C@@H]2c3cc4c(cc3[C@@H](O[C@@H]3O[C@@H]5CO[C@@H](C)O[C@H]5[C@H](O)[C@H]3O)[C@H]3COC(=O)[C@H]23)OCO4)cc(OC)c1O [etoposide] + C[C@]1(O)C[C@@H](c2nc(-c3ccc4ccc(-c5ccccc5)nc4c3)c3c(N)nccn32)C1 [OSI906] (first compound 0.02 µM, partner dose 0.4 µM)",108%
3,"CCCCCCCCCCCCCCCCCCOP(=O)([O-])OC1CC[N+](C)(C)CC1 [Perifosine] + C[C@@H](N)c1ccc(C(=O)Nc2ccnc3[nH]ccc23)cc1 [RKI983] (first compound 0.4 µM, partner dose 0.4 µM)",116%
4,"CCCCCCCCCCCCCCCCCCOP(=O)([O-])OC1CC[N+](C)(C)CC1 [Perifosine] + CCCS(=O)(=O)Nc1ccc(F)c(C(=O)c2c[nH]c3ncc(Cl)cc23)c1F [PLX4720] (first compound 0.4 µM, partner dose 0.08 µM)",31%
5,"O=C(/C=C/c1cccnc1)NCCCCC1CCN(C(=O)c2ccccc2)CC1 + Cc1cc(Nc2cc(N3CCN(C)CC3)nc(/C=C/c3ccccc3)n2)n[nH]1 [ENMD2076] (first compound 0.01 µM, partner dose 0.04 µM)",80.8%
6,"O=C(/C=C/c1cccnc1)NCCCCC1CCN(C(=O)c2ccccc2)CC1 + Clc1ccc(Nc2nnc(Cc3ccncc3)c3ccccc23)cc1 [vatalanib] (first compound 0.01 µM, partner dose 2 µM)",141%
7,"Cc1cc(Nc2cc(N3CCN(C)CC3)nc(Sc3ccc(NC(=O)C4CC4)cc3)n2)n[nH]1 [Tozasertib] + CC1(C)CCC(c2ccc(Cl)cc2)=C(CN2CCN(c3ccc(C(=O)NS(=O)(=O)c4ccc(N[C@H](CCN5CCOCC5)CSc5ccccc5)c(S(=O)(=O)C(F)(F)F)c4)cc3)CC2)C1 [ABT263] (first compound 0.006 µM, partner dose 0.4 µM)",87.3%
8,"CCCCCCCCCCCCCCCCCCOP(=O)([O-])OC1CC[N+](C)(C)CC1 [Perifosine] + NC(=O)c1ccc(N(C(N)=O)c2c(F)cccc2F)nc1-c1ccc(F)cc1F [VX702] (first compound 0.4 µM, partner dose 0.4 µM)",142%
9,"CCCCCCCCCCCCCCCCCCOP(=O)([O-])OC1CC[N+](C)(C)CC1 [Perifosine] + CC(=O)c1c(C)c2cnc(Nc3ccc(N4CCNCC4)cn3)nc2n(C2CCCC2)c1=O [palbociclib] (first compound 0.4 µM, partner dose 0.04 µM)",197%
10,"Cc1ccc(Nc2nccc(N(C)c3ccc4c(C)n(C)nc4c3)n2)cc1S(N)(=O)=O [Pazopanib] + O=C(O)c1ccc2c(c1)nc(Nc1cccc(Cl)c1)c1ccncc12 [CX4945] (first compound 0.4 µM, partner dose 0.4 µM)",80.6%
11,"Cc1cn(-c2cc(NC(=O)c3ccc(C)c(Nc4nccc(-c5cccnc5)n4)c3)cc(C(F)(F)F)c2)cn1 [nilotinib] + C=C(c1ccc(C(=O)O)cc1)c1cc2c(cc1C)C(C)(C)CCC2(C)C [Bexarotene] (first compound 0.2 µM, partner dose 2 µM)",529%
12,"Cc1cc(Nc2cc(N3CCN(C)CC3)nc(Sc3ccc(NC(=O)C4CC4)cc3)n2)n[nH]1 [Tozasertib] + O=C(O)[C@@H]1[O][Sb](=[O])([O][Sb]2(=[O])[O][C@H]([C@H](O)CO)[C@H](O)[C@H](C(=O)O)[O]2)[O][C@H]([C@H](O)CO)[C@@H]1O [stibogluconate] (first compound 0.006 µM, partner dose 2 µM)",71.4%
13,"O=C(/C=C/c1cccnc1)NCCCCC1CCN(C(=O)c2ccccc2)CC1 + Nc1ccn([C@@H]2O[C@H](CO)[C@@H](O)C2(F)F)c(=O)n1 [gemcitabine] (first compound 0.01 µM, partner dose 0.0004 µM)",71.2%
14,"O=C(/C=C/c1cccnc1)NCCCCC1CCN(C(=O)c2ccccc2)CC1 + O=C(O)c1ccc2c(c1)nc(Nc1cccc(Cl)c1)c1ccncc12 [CX4945] (first compound 0.01 µM, partner dose 0.4 µM)",172%
15,"O=C(/C=C/c1cccnc1)NCCCCC1CCN(C(=O)c2ccccc2)CC1 + Cc1ccc(Nc2nccc(N(C)c3ccc4c(C)n(C)nc4c3)n2)cc1S(N)(=O)=O [Pazopanib] (first compound 0.01 µM, partner dose 0.4 µM)",73.6%
16,"Cc1cc(Nc2cc(N3CCN(C)CC3)nc(Sc3ccc(NC(=O)C4CC4)cc3)n2)n[nH]1 [Tozasertib] + CC(C)C[C@H](NC(=O)[C@H](Cc1ccccc1)NC(=O)c1cnccn1)B(O)O [Bortezomib] (first compound 0.006 µM, partner dose 0.001 µM)",102%
17,"Cc1ccc(Nc2nccc(N(C)c3ccc4c(C)n(C)nc4c3)n2)cc1S(N)(=O)=O [Pazopanib] + Cn1c(=O)n(-c2ccc(C(C)(C)C#N)cc2)c2c3cc(-c4cnc5ccccc5c4)ccc3ncc21 [NVP-BEZ235] (first compound 0.4 µM, partner dose 0.004 µM)",2080%
18,"Cc1cc(Nc2cc(N3CCN(C)CC3)nc(Sc3ccc(NC(=O)C4CC4)cc3)n2)n[nH]1 [Tozasertib] + CS(=O)(=O)CCNCc1ccc(-c2ccc3ncnc(Nc4ccc(OCc5cccc(F)c5)c(Cl)c4)c3c2)o1 [lapatinib] (first compound 0.006 µM, partner dose 0.8 µM)",96.6%
19,"Cc1ccc(Nc2nccc(N(C)c3ccc4c(C)n(C)nc4c3)n2)cc1S(N)(=O)=O [Pazopanib] + Nc1nc(F)nc2c1ncn2[C@@H]1O[C@H](CO)[C@@H](O)[C@@H]1O [fludarabine] (first compound 0.4 µM, partner dose 0.2 µM)",404%
20,"N#CC[C@H](C1CCCC1)n1cc(-c2ncnc3[nH]ccc23)cn1 [ruxolitinib] + CC(=O)c1c(C)c2cnc(Nc3ccc(N4CCNCC4)cn3)nc2n(C2CCCC2)c1=O [palbociclib] (first compound 1 µM, partner dose 0.04 µM)",130%
21,"O=C(Nc1cc(C(F)(F)F)cc(C(F)(F)F)c1)c1cc(Cl)ccc1O + Nc1nc(F)nc2c1ncn2[C@@H]1O[C@H](CO)[C@@H](O)[C@@H]1O [fludarabine] (first compound 0.016 µM, partner dose 0.2 µM)",75%
22,"O=C(Nc1cc(C(F)(F)F)cc(C(F)(F)F)c1)c1cc(Cl)ccc1O + O=C(/C=C/c1cccnc1)NCCCCC1CCN(C(=O)c2ccccc2)CC1 [FK866] (first compound 0.016 µM, partner dose 0.01 µM)",95.9%

# Reprinted at random: 2 records from the list, in no set order.
row,SMILES,cleaved PARP positive nuclei fraction
2,"COc1cc([C@@H]2c3cc4c(cc3[C@@H](O[C@@H]3O[C@@H]5CO[C@@H](C)O[C@H]5[C@H](O)[C@H]3O)[C@H]3COC(=O)[C@H]23)OCO4)cc(OC)c1O [etoposide] + C[C@]1(O)C[C@@H](c2nc(-c3ccc4ccc(-c5ccccc5)nc4c3)c3c(N)nccn32)C1 [OSI906] (first compound 0.02 µM, partner dose 0.4 µM)",108%
14,"O=C(/C=C/c1cccnc1)NCCCCC1CCN(C(=O)c2ccccc2)CC1 + O=C(O)c1ccc2c(c1)nc(Nc1cccc(Cl)c1)c1ccncc12 [CX4945] (first compound 0.01 µM, partner dose 0.4 µM)",172%
